Measured values: US8455658B2, “Thiazole and thiadiazole compounds for inflammation and immune-related uses” (Synta Pharmaceuticals Corp., priority 2006, dated 2013)
For at least one compound, name, drawing or mass did not settle the structure.

System: IL-2 production
Experiment: Inhibition of IL-2 production in PHA-activated Jurkat cells (ELISA)
Format: cell-based
Conditions: PHA 2.5 μg/mL, 20 hours, IL-2 ELISA, lower bound in nM, upper bound in μM
Experimental: Jurkat cells were placed in a 96 well plate (0.5 million cells per well in 1% FBS medium) then a test compound of this invention was added at different concentrations. After 10 minutes, the cells were activated with PHA (final concentration 2.5 μg/mL) and incubated for 20 hours at 37° C. under CO2. The final volume was 200 μL. Following incubation, the cells were centrifuged and the supernatants collected and stored at −70° C. prior to assaying for IL-2 production. A commercial ELISA kit (IL-2 Eli-pair, Diaclone Research, Besancon, France) was used to detect production of IL-2, from which dose response curves were obtained.

Compound: Cc1ncoc1-c1nc(NC(=O)c2c(F)cccc2F)sc1-c1cccc(C(F)(F)F)c1 [Compound 79, 2,6-Difluoro-N-(4-(4-methyloxazol-5-yl)-5-(3-(trifluoromethyl)phenyl)thiazol-2-yl)benzamide]
- IC50 (inhibition of IL-2 production): 500 nM< and <1 μM
